From patent US20250074981A1, “COMBINATION THERAPY WITH DEXAMETHASONE AND TUMOR-SPECIFIC T CELL ENGAGING MULTI-SPECIFIC ANTIBODIES FOR TREATING CANCER” (MEMORIAL SLOAN-KETTERING CANCER CENTER, priority 2021, published 2025)
At least one structure is not confirmed: it was looked up by name or label, or the drawing left a doubt.

Assays:
[1] = system: GD2(+) neuroblastoma PDXs; assay: In vivo anti-tumor effect against GD2(+) neuroblastoma PDXs
[2] = system: GD2(+) osteosarcoma PDX; assay: In vivo anti-tumor effect of dexamethasone premedication with GD2-EATs in GD2(+) osteosarcoma PDX; parameters: species or system mice; conditions: LD or HD dexamethasone before GD2-EATs

Structure (SMILES): C[C@@H]1C[C@H]2[C@@H]3CCC4=CC(=O)C=C[C@]4(C)[C@@]3(F)[C@@H](O)C[C@]2(C)[C@@]1(O)C(=O)CO [dexamethasone]
- survival ([1]; addition of HD dexamethasone 32 mg/kg/dose): significantly improved survival
- survival ([1]; addition of ID dexamethasone 8 mg/kg/dose): significantly improved survival
- survival [2]: prolonged survival in a dose-dependent manner
